Laboratory results: PubChem BioAssay AID652243 (Drosophila RNAi Screening Center, 2013)
In all, the deposit lists about 24,000 reagents; shown is an unselected part of those with a known target gene and a result. In the full data, 246 (1%) are marked active. 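Plates not normalised; calls are printed but the firefly/Renilla ratio behind them is not deposited; fold cut for lowering reported inconsistently.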 The raw values are shown without normalisation. A plus sign joins genes that one reagent is predicted to hit. Not stated in the record: the amount of reagent.

Aim: 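Fly regulators of androgen-dependent reporter output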 (primary screen)
Cell system: Drosophila S2R+ cells
Knock-down reagent: long dsRNA against Drosophila genes
Time to read-out: 72 h (48 h, then 24 h hormone)
Conditions: synthetic androgen R1881 at 10 nM for 24 h
Measurement: 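Firefly light from an androgen-responsive reporter and Renilla control light per well, raw and unnormalised, for each of two replicates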
Direction: firefly reporter light: higher = more light from androgen-responsive reporter; Renilla control light: higher = more constitutive control signal (cell number, transfection)
Hit rule: 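Across duplicate plates, a knock-down whose log firefly/Renilla ratio shifted a set fold down or up from the GFP/LacZ control mean was a hit; the downward cut appears as both 1.5 and 3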
Meaning of the calls: active = hit: reporter lowered or raised; inactive = no hit

The first 2 records, ahead of the listing:
Target gene	amplicon	firefly reporter light, replicate 1	firefly reporter light, replicate 2	Renilla control light, replicate 1	Renilla control light, replicate 2	call
CG8870	DRSC16452	87605	1.63e5	1.20e6	1.80e6	inactive
SPH93 (Serine protease homolog 93)	DRSC02978	1.37e5	1.38e5	1.95e6	2.14e6	inactive

Main list, repeating the preview:
Target gene	amplicon	firefly reporter light, replicate 1	firefly reporter light, replicate 2	Renilla control light, replicate 1	Renilla control light, replicate 2	call
CG8870	DRSC16452	87605	1.63e5	1.20e6	1.80e6	inactive
SPH93 (Serine protease homolog 93)	DRSC02978	1.37e5	1.38e5	1.95e6	2.14e6	inactive
nompC (no mechanoreceptor potential C)	DRSC03581	1.01e5	77302	1.21e6	7.86e5	inactive
dsb (debris buster)	DRSC08542	1.16e5	45000	1.58e6	8.42e5	inactive
CG32452	DRSC11581	1.54e5	1.40e5	5.16e5	3.52e5	inactive
CG32452	DRSC22250	6.06e5	7.03e5	2.94e6	2.54e6	inactive
CG32452	DRSC26705	3.28e5	2.69e5	3.51e5	3.97e5	inactive
Prosbeta2R1 (Proteasome beta2 subunit-related 1)	DRSC18154	2.56e5	3.33e5	2.13e6	3.55e6	inactive
CG31687 + Cdc23	DRSC23052	4.80e5	6.85e5	1.08e6	1.14e6	inactive
CG6153	DRSC02935	1.05e6	1.09e6	2.00e6	2.83e6	inactive
Dhrs4 (Dehydrogenase/reductase 4)	DRSC09773	8.61e5	9.33e5	7.63e5	1.09e6	inactive
CR41379 + Rint1	DRSC38730	1.16e6	1.02e6	1.74e6	2.00e6	inactive
CdGAPr (Cd GTPase activating protein-related)	DRSC03289	78111	1.23e5	1.16e6	1.43e6	inactive
baf (barrier to autointegration factor)	DRSC03051	1.16e5	1.19e5	1.86e6	1.72e6	inactive
baf (barrier to autointegration factor)	DRSC26974	3.98e5	3.85e5	5.05e5	3.51e5	inactive
ATPsynbetaL (ATP synthase, beta subunit-like)	DRSC10503	1.75e5	2.05e5	1.80e6	1.69e6	inactive
ATPsynbetaL (ATP synthase, beta subunit-like)	DRSC24354	5.45e5	5.65e5	6.02e5	7.65e5	inactive
trc (tricornered)	DRSC11406	2.63e5	2.32e5	2.32e6	2.64e6	inactive
trc (tricornered)	DRSC29426	3.50e5	3.77e5	7.42e5	7.42e5	inactive
trc (tricornered)	DRSC37008					inactive
lncRNA:mimi (mimi)	DRSC21429	8.24e5	8.68e5	1.95e6	1.83e6	inactive
REG (Proteasome regulator gamma)	DRSC20273	5.03e5	3.68e5	3.24e6	2.62e6	inactive
bnb (bangles and beads)	DRSC20314	85191	85302	6.94e5	7.80e5	inactive
bnb (bangles and beads)	DRSC27623	2.02e5	2.80e5	4.65e5	8.57e5	inactive
CG13721	DRSC08330	1.32e5	1.88e5	2.35e6	2.68e6	inactive
CG13727	DRSC10055	3.33e5	3.71e5	3.97e6	3.19e6	inactive
CG32445	DRSC11678	1.65e5	1.39e5	2.12e6	1.23e6	inactive
chinmo (Chronologically inappropriate morphogenesis)	DRSC00485	1.20e5	1.91e5	9.62e5	1.10e6	inactive
chinmo (Chronologically inappropriate morphogenesis)	DRSC00509	44371	47399	2.83e5	3.27e5	inactive
chinmo (Chronologically inappropriate morphogenesis)	DRSC22413	1.58e5	3.48e5	6.45e5	1.11e6	inactive
chinmo (Chronologically inappropriate morphogenesis)	DRSC28547	4.41e5	8.83e5	8.54e5	1.42e6	inactive
mRpL23 (mitochondrial ribosomal protein L23)	DRSC08307	1.10e5	82248	1.21e6	1.47e6	inactive
mora (morgana)	DRSC16594	1.64e5	2.74e5	2.17e6	2.64e6	inactive
Cth (Cystathionine gamma-lyase)	DRSC07422	4.16e5	3.61e5	6.57e5	6.63e5	inactive
sphe (spheroide)	DRSC20203	1.17e5	1.52e5	7.92e5	8.86e5	inactive
CG15203	DRSC19650	4.47e5	5.18e5	3.74e6	3.37e6	inactive
e(y)2b (enhancer of yellow 2b)	DRSC12556	61990	72045	1.58e6	1.17e6	inactive
Mal-B2 (Maltase B2)	DRSC02417	6.24e5	6.18e5	3.88e6	2.98e6	inactive
eca (eclair)	DRSC22290	1.12e6	1.21e6	9.12e5	1.05e6	inactive
Shaw (Shaker cognate w)	DRSC00433	1.33e5	53392	1.27e6	1.09e6	inactive
Shaw (Shaker cognate w)	DRSC00788	5.45e5	4.88e5	3.78e6	3.08e6	inactive
Shaw (Shaker cognate w)	DRSC21368	8.51e5	8.05e5	1.92e6	1.64e6	inactive
CG6660	DRSC16087	84440	68402	4.00e5	3.87e5	inactive
CG9550	DRSC03262	1.71e5	2.14e5	2.01e6	2.06e6	inactive
CG9550	DRSC26557	4.01e5	3.13e5	6.07e5	3.28e5	inactive
CG12516	DRSC14524	2.68e5	3.00e5	3.26e6	3.56e6	inactive
CG31638	DRSC02269	61889	43576	1.09e6	1.16e6	active
CG31638	DRSC03259	90933	91255	1.07e6	1.01e6	inactive
CG31638	DRSC25082	7.05e5	6.60e5	1.02e6	1.23e6	inactive
CG34308	DRSC38663	7.64e5	7.86e5	2.33e6	2.43e6	inactive
CG18508	DRSC18155	3.67e5	3.36e5	4.58e6	3.28e6	inactive
CG18508	DRSC25633	6.07e5	7.01e5	1.02e6	1.32e6	inactive
CG33217	DRSC22907	4.11e5	8.60e5	1.05e6	2.25e6	inactive
CG33217	DRSC28139	4.48e5	4.26e5	1.79e6	1.44e6	inactive
CG30151	DRSC05888	1.09e5	96900	2.14e5	1.83e5	inactive
CG30151	DRSC24759	9.42e5	9.89e5	8.45e5	7.19e5	inactive
CG15473	DRSC18056	4.73e5	3.74e5	2.42e6	2.49e6	inactive
Cpr78E (Cuticular protein 78E)	DRSC11807	3.30e5	2.32e5	2.60e6	2.49e6	inactive
metro (menage a trois)	DRSC06341	8.05e5	1.02e6	1.59e6	1.06e6	inactive
metro (menage a trois)	DRSC06725	2.20e5	2.25e5	1.52e6	1.49e6	inactive
metro (menage a trois)	DRSC27336	2.50e5	2.81e5	4.19e5	4.55e5	inactive
CG6701	DRSC07007	3.17e5	4.07e5	9.48e5	8.10e5	inactive
CG31778	DRSC00283	8.00e5	6.46e5	2.43e6	2.16e6	inactive
CG32214	DRSC09613	5.08e5	4.95e5	9.96e5	9.97e5	inactive
VhaM9.7-c (Vacuolar H[+] ATPase M9.7 subunit c)	DRSC08204	8.28e5	5.06e5	1.08e6	1.29e6	inactive
VhaM9.7-c (Vacuolar H[+] ATPase M9.7 subunit c)	DRSC30083	8.58e5	8.96e5	1.32e6	1.13e6	inactive
ben (bendless)	DRSC20310	31696	49256	2.89e5	3.41e5	inactive
ben (bendless)	DRSC21261	4.08e5	4.52e5	5.99e5	5.18e5	inactive
ben (bendless)	DRSC29133	8.18e5	6.23e5	1.31e6	9.68e5	inactive
pros (prospero)	DRSC12856	2.64e5	2.86e5	6.49e5	6.15e5	inactive
pros (prospero)	DRSC17032	76363	1.01e5	8.40e5	9.56e5	inactive
pros (prospero)	DRSC27593	3.18e5	1.83e5	4.16e5	7.97e5	inactive
CG4022	DRSC10395	1.64e5	1.00e5	2.80e6	2.14e6	inactive
CG4022	DRSC27317	3.12e5	3.16e5	5.96e5	6.94e5	inactive
